Test results taken from article PMC3534055.
Results are given in words; binding and its absence hold for the method and conditions named. In cells and extracts the contact can be indirect. Some entries that bind do so weakly or less than the wild type. Sequences can lack the tags named with a protein.

Protein sequences, listed by entry. Tags and fused reporters are not part of them. Lines headed by an entry give the natural chain unless they say otherwise; changes in a name come on top. Chains listed by the source or under a name are the forms on record and can include a tag or linker. Residues count along the entry.
Fms-like tyrosine kinase 3 (Flt3), wild type (P36888, residues 27-993): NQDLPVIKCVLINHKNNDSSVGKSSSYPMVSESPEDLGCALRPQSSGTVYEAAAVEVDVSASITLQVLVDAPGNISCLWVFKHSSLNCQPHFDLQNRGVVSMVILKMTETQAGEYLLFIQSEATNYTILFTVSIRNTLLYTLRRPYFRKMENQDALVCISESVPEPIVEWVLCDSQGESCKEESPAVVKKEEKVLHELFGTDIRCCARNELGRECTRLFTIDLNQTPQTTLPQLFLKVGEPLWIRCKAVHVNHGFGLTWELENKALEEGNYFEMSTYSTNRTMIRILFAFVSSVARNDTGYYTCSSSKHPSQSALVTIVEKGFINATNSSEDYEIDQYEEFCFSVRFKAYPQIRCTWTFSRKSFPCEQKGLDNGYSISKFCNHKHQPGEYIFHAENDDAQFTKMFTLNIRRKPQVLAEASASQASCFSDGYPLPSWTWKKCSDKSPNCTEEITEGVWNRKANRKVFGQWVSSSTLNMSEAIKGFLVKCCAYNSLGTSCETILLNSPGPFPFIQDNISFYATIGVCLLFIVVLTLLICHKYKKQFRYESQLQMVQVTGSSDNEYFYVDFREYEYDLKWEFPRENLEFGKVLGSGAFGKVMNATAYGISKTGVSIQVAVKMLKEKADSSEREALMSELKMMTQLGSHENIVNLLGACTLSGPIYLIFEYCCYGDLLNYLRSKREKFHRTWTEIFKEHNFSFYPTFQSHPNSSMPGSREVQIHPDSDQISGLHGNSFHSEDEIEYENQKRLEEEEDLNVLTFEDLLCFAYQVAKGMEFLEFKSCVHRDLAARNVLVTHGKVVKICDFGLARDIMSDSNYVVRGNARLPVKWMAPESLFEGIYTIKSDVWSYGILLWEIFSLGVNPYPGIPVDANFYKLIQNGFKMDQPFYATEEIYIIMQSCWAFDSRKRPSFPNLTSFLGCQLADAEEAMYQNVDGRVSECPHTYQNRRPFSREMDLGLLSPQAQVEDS
Flt3-Y589F/Y591F/Y599F (P36888, form named): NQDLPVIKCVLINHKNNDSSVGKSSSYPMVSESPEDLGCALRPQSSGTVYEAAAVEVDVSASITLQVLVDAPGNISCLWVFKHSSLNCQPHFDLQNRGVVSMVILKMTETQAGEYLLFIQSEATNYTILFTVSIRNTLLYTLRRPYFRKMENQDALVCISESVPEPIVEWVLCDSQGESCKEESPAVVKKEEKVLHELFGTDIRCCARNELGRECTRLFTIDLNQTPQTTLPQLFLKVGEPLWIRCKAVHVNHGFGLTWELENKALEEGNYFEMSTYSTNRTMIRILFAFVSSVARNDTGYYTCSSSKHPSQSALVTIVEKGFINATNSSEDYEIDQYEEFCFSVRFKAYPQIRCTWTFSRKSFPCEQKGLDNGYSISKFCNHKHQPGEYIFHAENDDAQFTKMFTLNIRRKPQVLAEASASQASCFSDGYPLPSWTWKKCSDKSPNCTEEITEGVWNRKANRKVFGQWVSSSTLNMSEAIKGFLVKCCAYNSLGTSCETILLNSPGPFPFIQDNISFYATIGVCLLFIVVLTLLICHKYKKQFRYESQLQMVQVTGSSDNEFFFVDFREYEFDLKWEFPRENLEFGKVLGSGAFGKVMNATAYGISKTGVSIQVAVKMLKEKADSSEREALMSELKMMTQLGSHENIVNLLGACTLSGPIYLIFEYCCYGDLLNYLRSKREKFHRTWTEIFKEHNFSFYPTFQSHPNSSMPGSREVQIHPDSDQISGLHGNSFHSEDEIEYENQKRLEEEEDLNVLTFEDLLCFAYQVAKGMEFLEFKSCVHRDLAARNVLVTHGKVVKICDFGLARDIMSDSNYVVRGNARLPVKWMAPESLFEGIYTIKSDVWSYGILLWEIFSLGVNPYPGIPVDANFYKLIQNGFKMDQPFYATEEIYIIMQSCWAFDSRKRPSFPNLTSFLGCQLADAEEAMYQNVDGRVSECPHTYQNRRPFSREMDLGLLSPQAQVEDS

Target: T1, Src-like adaptor protein (SLAP), FLAG-tagged (UniProt Q13239)
T1 sequence: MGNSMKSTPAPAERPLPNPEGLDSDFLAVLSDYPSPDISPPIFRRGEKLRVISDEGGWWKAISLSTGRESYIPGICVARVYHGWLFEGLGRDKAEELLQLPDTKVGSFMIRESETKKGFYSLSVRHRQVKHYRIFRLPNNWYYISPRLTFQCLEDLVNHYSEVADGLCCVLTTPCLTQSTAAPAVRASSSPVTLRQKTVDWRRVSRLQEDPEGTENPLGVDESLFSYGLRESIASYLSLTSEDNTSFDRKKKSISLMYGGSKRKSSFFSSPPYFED
Assay: co-IP; COS-1 cells co-transfected with SLAP-FLAG and Flt3 constructs, serum-starved overnight, stimulated with 100 ng/ml FL or not (5 min, or a time course up to 2 hours); 1% Triton X100 lysates immunoprecipitated with anti-FLAG or anti-Flt3 antibody, Western blotting

binding | Substance
binds | Flt3-Y589F/Y591F/Y599F (from UniProt P36888 27-993) (receptor)
binds | Fms-like tyrosine kinase 3 (Flt3), wild type (from UniProt P36888 27-993) (receptor)
